No constants are given. Whether binding was seen depends on the method and setting. Binding seen in cells or lysates may run through a third protein. For part of these data: Binding calls can cover weak binding; strength is not graded here.

Sequences of proteins named here, by UniProt entry; tags and fusion partners are left off. A change or cut given only in a name is not applied to a line headed by its entry.
UniProt Q8CAK1: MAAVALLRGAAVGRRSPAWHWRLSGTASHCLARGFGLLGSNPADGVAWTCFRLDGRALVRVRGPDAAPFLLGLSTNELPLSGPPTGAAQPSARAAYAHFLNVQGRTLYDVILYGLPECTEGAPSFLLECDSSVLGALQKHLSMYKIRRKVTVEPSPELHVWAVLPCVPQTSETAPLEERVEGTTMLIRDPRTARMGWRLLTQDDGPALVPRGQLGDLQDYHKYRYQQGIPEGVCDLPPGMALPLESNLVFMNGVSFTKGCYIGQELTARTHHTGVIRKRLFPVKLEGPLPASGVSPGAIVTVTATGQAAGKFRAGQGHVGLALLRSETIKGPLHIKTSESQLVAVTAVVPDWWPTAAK
UniProt Q9DCB8: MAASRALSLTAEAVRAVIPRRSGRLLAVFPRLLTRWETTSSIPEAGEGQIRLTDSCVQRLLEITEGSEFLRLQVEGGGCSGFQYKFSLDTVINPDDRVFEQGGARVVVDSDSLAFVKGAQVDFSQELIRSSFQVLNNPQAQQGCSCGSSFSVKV

In experiment [1] the target is IBA57-Flag (mouse IBA57 with a C-terminal Flag epitope) (mouse) (UniProt Q8CAK1). Description: co-IP; Flag M2 resin IP from mitochondria-enriched extracts of N2a cells transfected with ISCA1-Flag, ISCA2-Flag or IBA57-Flag, versus control IP; western blot of the eluates. For orientation: A western blot detects proteins with antibodies after separation by electrophoresis.

For experiment [2], the target named is ISCA2-Flag (mouse ISCA2 with a C-terminal Flag epitope) (mouse) (UniProt Q9DCB8). The description is as above.

B1: NFU1 (endogenous, N2a) (protein, UniProt Q9QZ23 30-255)
chain: FKKQPLHQYVRRPLFPLRAPLCNTVRFMFIQTQDTPNPNSLKFIPGKPVLETRTMDFPTPAAAFRSPLARQLFRIEGVKSVFFGPDFITVTKENEELDWNLLKPDIYATIMDFFASGLPLVTEETPPPPGEAGSEEDDEVVAMIKELLDTRIRPTVQEDGGDVIYRGFEDGIVRLKLQGSCTSCPSSIITLKSGIQNMLQFYIPEVEGVEQVMDDDESDEKEANSS
For the molecule B1, the binding result in experiment [1] and in experiment [2] was “no binding” in each case.

B2: GLRX5 (endogenous, N2a) (protein, UniProt Q80Y14 32-152)
chain: ASSGGQAEQLDALVKKDKVVVFLKGTPEQPQCGFSNAVVQILRLHGVRDYAAYNVLDDPELRQGIKDYSNWPTIPQVYLNGEFVGGCDILLQMHQNGDLVEELKKLGIRSALVDEKDQDSK
As for B2, in experiment [2], the binding result was “binds”.
